Assay results: patent publication US20210029995A1, “Use of Volatile Organic Compounds as Pesticides” (Certis Europe B.V., priority 2018, published 2021)
Some entries share one result that the patent states for a list of compounds.

Tested on: S. feltiae and H. bacteriophora
Assay: Screening of VOCs for nematicidal activity, summary over both EPN species
Assay type: in vivo, Steinernema feltiae; Heterorhabditis bacteriophora
Settings: 20 μl VOC, 24 hr, range over both EPN species

C=CC(O)CCCCC (centres unmarked) [1-octen-3-ol]
mortality: 85-100%

CCCCCC(=O)CC [3-octanone]
mortality: 85-100%
